In PubChem BioAssay AID248 (DTP/NCI, 2004):
The list shows only some results of the screen, not a fair sample: it is rich in T/C values a quarter to a half above the control, in often repeated tests (any T/C) and in doses without a T/C. Further doses and runs are listed elsewhere. T/C gives the treated animals as a percentage of the vehicle group. For survival time, the PubChem record calls one and a half times the control and up active, and a quarter to a half above the control has no call in these data; cut-offs in other NCI protocols can differ. Schedule codes are those of the source, taken here to give the interval after Q, in days (D) or hours (H), and the number of doses after X. Some entries were tested several times; the results are listed from low to high. Counts like (3×) say how often a value occurs here. Some schedule codes hold Z or #, which are not explained here. Some T/C values carry the count of animals alive at the toxicity check (mostly the fifth day); without a count, all were alive then.

Tested on: L1210 leukemia ip in BDF1 mice, survival T/C
Experiment: NCI In Vivo Anticancer Drug Screen. Data for tumor model L1210 Leukemia (intraperitoneal) in B6D2F1 (BDF1) mice
Settings: T/C endpoint: mean survival time, higher T/C = longer survival

O=c1[nH]c(=O)n(C2CC(O)C(CO)O2)cc1F (stereo not given)
T/C (dose: 10.0 mg/kg/injection, schedule: Q01DX009 (ip), vehicle: saline): 126 % of control | T/C (dose: 12.5 mg/kg/injection, schedule: Q#A X Z (ip), vehicle: saline): 131 and 132 % of control | T/C (dose: 18.0 mg/kg/injection, schedule: Q01DX009 (ip), vehicle: saline): 101, 114, 117, 118 % of control | T/C (dose: 20.0 mg/kg/injection, schedule: Q01DX009 (ip), vehicle: saline): 120, 122, 130, 138 % of control | T/C (dose: 20.0 mg/kg/injection, schedule: Q01DX015 (ip), vehicle: saline): 134 % of control | T/C (dose: 25.0 mg/kg/injection, schedule: Q01DX009 (ip), vehicle: saline): 129 % of control | T/C (dose: 25.0 mg/kg/injection, schedule: Q01DX Z (ip), vehicle: carboxymethylcellulose (CMC)): 127 % of control | T/C (dose: 25.0 mg/kg/injection, schedule: Q01DX Z (ip), vehicle: saline): 131 % of control | T/C (dose: 25.0 mg/kg/injection, schedule: Q#A X034 (ip), vehicle: saline): 130 % of control | T/C (dose: 25.0 mg/kg/injection, schedule: Q#A X Z (ip), vehicle: saline): 142 and 146 % of control | T/C (dose: 30.0 mg/kg/injection, schedule: Q01DX005 (ip), vehicle: water, evaluated on day 21): 111 % of control | T/C (dose: 30.0 mg/kg/injection, schedule: Q01DX005 (ip), vehicle: water, evaluated on day 30): 96, 106, 109 % of control | T/C (dose: 30.0 mg/kg/injection, schedule: Q01DX015 (ip), vehicle: saline): 136 % of control | T/C (dose: 36.0 mg/kg/injection, schedule: Q01DX009 (ip), vehicle: saline): 114, 121, 123 % of control (2×) | T/C (dose: 40.0 mg/kg/injection, schedule: Q01DX009 (ip), vehicle: saline): 125, 138, 139, 142 % of control | T/C (dose: 40.0 mg/kg/injection, schedule: Q01DX Z (ip), vehicle: other): 127 and 143 % of control | T/C (dose: 43.2 mg/kg/injection, schedule: Q01DX009 (ip), vehicle: saline): 144 % of control | T/C (dose: 45.0 mg/kg/injection, schedule: Q01DX015 (ip), vehicle: saline): 135 % of control | T/C (dose: 45.0 mg/kg/injection, schedule: Q01DX015 (ip), vehicle: water): 126 % of control | T/C (dose: 50.0 mg/kg/injection, schedule: Q01DX005 (ip), vehicle: water, evaluated on day 21): 111 % of control | T/C (dose: 50.0 mg/kg/injection, schedule: Q01DX005 (ip), vehicle: water, evaluated on day 30): 97, 109, 122 % of control | T/C (dose: 50.0 mg/kg/injection, schedule: Q01DX009 (ip), vehicle: saline): 138 and 147 % of control | T/C (dose: 50.0 mg/kg/injection, schedule: Q01DX017 (ip), vehicle: saline): 131 % of control | T/C (dose: 50.0 mg/kg/injection, schedule: Q01DX Z (im), vehicle: saline): 127 % of control | T/C (dose: 50.0 mg/kg/injection, schedule: Q01DX Z (ip), vehicle: carboxymethylcellulose (CMC)): 127 % of control | T/C (dose: 50.0 mg/kg/injection, schedule: Q01DX Z (ip), vehicle: saline): 127, 130, 136, 137 % of control | T/C (dose: 50.0 mg/kg/injection, schedule: Q01DX Z (sc), vehicle: saline): 127 % of control | T/C (dose: 60.0 mg/kg/injection, schedule: Q01DX009 (ip), vehicle: saline): 138 % of control | T/C (dose: 67.0 mg/kg/injection, schedule: Q01DX Z (ip), vehicle: saline): 134 % of control | T/C (dose: 68.0 mg/kg/injection, schedule: Q01DX015 (ip), vehicle: water): 136 % of control | T/C (dose: 71.0 mg/kg/injection, schedule: Q04DX002 (ip), vehicle: saline): 103, 105 (2×), 115 % of control | T/C (dose: 72.0 mg/kg/injection, schedule: Q01DX009 (ip), vehicle: saline, evaluated on day 30): 131, 140, 147, 158 % of control | T/C (dose: 72.0 mg/kg/injection, schedule: Q01DX009 (ip), vehicle: saline, evaluated on day 60): 144 % of control | T/C (dose: 74.0 mg/kg/injection, schedule: Q01DX009 (ip), vehicle: saline): 137 and 141 % of control | T/C (dose: 80.0 mg/kg/injection, schedule: Q01DX009 (ip), vehicle: saline, evaluated on day 5): 142 % of control | T/C (dose: 80.0 mg/kg/injection, schedule: Q01DX009 (ip), vehicle: saline, evaluated on day 30): 142, 151, 153, 154 % of control | T/C (dose: 80.0 mg/kg/injection, schedule: Q01DX015 (ip), vehicle: saline): 148 % of control | T/C (dose: 80.0 mg/kg/injection, schedule: Q## X009 (ip), vehicle: saline): 142 % of control | T/C (dose: 100.0 mg/kg/injection, schedule: Q01DX005 (ip), vehicle: saline, evaluated on day 30): 139 % of control | T/C (dose: 100.0 mg/kg/injection, schedule: Q01DX005 (ip), vehicle: saline, run until all animals had died): 139 % of control | T/C (dose: 100.0 mg/kg/injection, schedule: Q01DX006 (iv), vehicle: saline): 126 % of control | T/C (dose: 100.0 mg/kg/injection, schedule: Q01DX009 (ip), vehicle: saline): 127 % of control | T/C (dose: 100.0 mg/kg/injection, schedule: Q01DX Z (im), vehicle: saline): 141 % of control | T/C (dose: 100.0 mg/kg/injection, schedule: Q01DX Z (ip), vehicle: saline): 128 % of control | T/C (dose: 100.0 mg/kg/injection, schedule: Q01DX Z (oral), vehicle: saline): 131 % of control [5 of 6 alive] | T/C (dose: 100.0 mg/kg/injection, schedule: Q02DX009 (ip), vehicle: saline): 126 % of control | T/C (dose: 100.0 mg/kg/injection, schedule: Q#A X034 (ip), vehicle: saline): 130 % of control | T/C (dose: 110.0 mg/kg/injection, schedule: Q01DX009 (ip), vehicle: saline): 142 % of control | T/C (dose: 118.0 mg/kg/injection, schedule: Q## X032 (ip), vehicle: saline): 131 % of control | T/C (dose: 120.0 mg/kg/injection, schedule: Q01DX009 (ip), vehicle: saline, evaluated on day 5): 149 % of control
